The nature of this test: IkB Signaling. The conditions noted are these: ABC-DLBCL IkBa-CBG/CBR dual luciferase ratio (green luciferase fused to IkBa over red control in OCI-Ly3 lymphoma cells), 4 h. The gist of the method: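 Luminescence ratio of IκBα-fused green versus native red beetle luciferase in OCI-Ly3 cells, 4 h post-doxycycline with compound; red signal alone, scaled from basal (0%) to zero light (-100%), flagged nonspecific or cytotoxic effects.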
The mark [1] stands for this setting: measured here: control luc red channel unless noted.

The other results are listed elsewhere or left out. The main result of the screen is listed elsewhere. These columns were measured beside it and carry no call. Most of these compounds were active or inconclusive in the main read-out, so they are no random draw. The note in brackets gives the kind of curve behind each potency; many fits are weak.

In general, AC50 refers to the midpoint of the concentration-response curve, whichever way the signal moves. As for `COc1cccc(-n2c(SCC(=O)NCCC3=CCCCC3)nc3n[nH]c(C)c3c2=N)c1`, the AC50 under setting [1] was 10 µM [falling, partial curve].

Regarding `N#C/C(=C/c1ccc(N2CCCCCC2)o1)c1ccc(F)cc1`, under setting [1], the AC50 was 3.16 µM [falling, full curve].

On to `CCS(=O)(=O)N1Cc2ccccc2CC1C(=O)N1CCN(c2cccc(C)c2C)CC1` (configuration not stated), for which, under setting [1], the AC50 was 20 µM [falling, partial curve].

As to `O=C(O)c1c2c(nc3ccc(S(=O)(=O)N4CCC(C(=O)NCc5ccc(Cl)cc5)CC4)cc13)CCCC2`, the AC50 under setting [1] is 15.8 µM [falling, partial curve].

Turning to `O=C(Nc1nc2ccccc2[nH]1)c1ccccc1F`, the AC50 under setting [1] is 2 µM [falling, full curve].

For `COc1cc(/C=C/c2nc3cc(Cl)ccc3c(=O)n2-c2ccc(C)cc2C)cc(OC)c1OC`, the AC50 under setting [1] is 31.6 µM [falling, single point].

`O=C(CCCC1=NS(=O)(=O)c2ccccc2N1)N1CCN(c2ccc(Cl)cc2)CC1`: under setting [1], the AC50 was 25.1 µM [falling, single point].

On to `COc1ccc(S(=O)(=O)NCC(c2ccco2)N2CCN(c3ccccc3F)CC2)cc1C` (configuration not stated), for which, under setting [1], the AC50 is 39.8 µM [falling, single point].

`Cc1onc(-c2ccccc2)c1C(N)=O`: the AC50 under setting [1] is 7.94 µM [rising, single point] [measured here: IkB-luc green channel].

`O=C(Cc1c(O)c2ccccc2[nH]c1=O)NC1CCCCCCC1`: the AC50 under setting [1] was 2.51 µM [falling, full curve].

As for `CCOC(=O)c1c(C)oc2nc(C)nc(N3CCN(c4cccc(C)c4C)CC3)c12`, the AC50 under setting [1] is 31.6 µM [falling, single point].

Consider `Cc1c(C(=O)OC2CCCCC2)sc2nc[nH]c(=O)c12`, for which the AC50 under setting [1] was 3.98 µM [rising, partial curve].

On to `Cc1cccc(OCCSc2nc3ccccc3n2CC(=O)N2CCOCC2)c1C`, for which, under setting [1], the AC50 was 10 µM [falling, partial curve].

For the molecule `CC(C)(C)NS(=O)(=O)c1cccc(S(=O)(=O)c2cccc(S(=O)(=O)NC(C)(C)C)c2)c1`, the AC50 under setting [1] is 15.8 µM [falling, partial curve].

With `CCOc1ccc(C2C(C(N)=O)=C(C)Nc3nc(-c4cccc(Cl)c4)nn32)cc1OC` (configuration not stated), the AC50 under setting [1] was 39.8 µM [falling, single point].

On to `CCOC(=O)N1CCN(Cc2nc3cc(NC(=O)c4ccc([N+](=O)[O-])cc4)ccc3n2C(C)C)CC1`, for which the AC50 under setting [1] is 25.1 µM [falling, single point].

As for `CC1Cn2cc(C(=O)Nc3ccccc3C(F)(F)F)c(=O)c3c(Cl)ccc(c32)O1` (configuration not stated), under setting [1], the AC50 is 3.98 µM [rising, full curve, poor fit].

Turning to `CC(C)Oc1ccc(C(=O)Nc2nc3c(s2)CC(C(C)(C)C)CC3)cc1` (configuration not stated), the AC50 under setting [1] was 25.1 µM [falling, single point].

Consider `COC(=O)c1[nH]c2ccc(Cl)cc2c1NC(=O)CN1CCc2cc(OC)c(OC)cc2C1`, for which the AC50 under setting [1] is 15.8 µM [falling, partial curve].

With `O=c1c2ccccc2nc2n1CCc1c-2[nH]c2ccccc12`, the AC50 under setting [1] is 316 nM [falling, full curve, poor fit] [measured here: IkB-luc green channel].

Turning to `O=C(/C=C/c1ccccc1)N1CCN(Cc2cc(=O)n3nc(-c4ccccc4Cl)sc3n2)CC1`, the AC50 under setting [1] is 39.8 µM [falling, single point].

In the case of `CCn1c(SCC(=O)c2ccccc2)nnc1-c1cnccn1`, the AC50 under setting [1] is 7.94 µM [falling, partial curve].

On to `COc1ccc2[nH]c(C(=O)c3ccccc3)cc2c1`, for which the half-maximal activity concentration (AC50) under setting [1] is 0.126 µM [rising, full curve].

With `COc1ccc(Cl)cc1NS(=O)(=O)c1c(C)[nH]c(=O)[nH]c1=O`, the half-maximal activity concentration (AC50) under setting [1] is 3.98 µM [rising, partial curve].

Turning to `Cc1ccc(O)c(NC(=O)CCSc2nc(-c3ccco3)cc(C(F)(F)F)n2)c1`, the AC50 is, setting by setting: (measured here: IkB-luc green channel) 39.8 µM [rising, single point]; (measured here: control luc red channel) 39.8 µM [rising, single point].

In the case of `O=C(CN1C(=O)C2(SCC(=O)N2c2ccc(Cl)cc2)c2ccccc21)NCCc1ccccc1` (configuration not stated), the AC50 under setting [1] is 31.6 µM [falling, single point].

Take `Cc1ccc(-c2nc(C(=O)NC3CCCCCC3)no2)cc1`: the half-maximal activity concentration (AC50) under setting [1] is 31.6 µM [falling, partial curve].

In the case of `CCc1cccc(NC(=O)c2cccc3c2C(=O)N(C2CCCCC2)C3)c1`, the AC50 under setting [1] is 1.26 µM [rising, full curve].

With `COc1nnc(-c2ccc(N3CCCCC3)c(NC(=O)c3ccccc3)c2)c2ccccc12`, the AC50 under setting [1] was 10 µM [falling, partial curve].

Turning to `O=C(NCC(c1cccnc1)N1CCc2ccccc21)C(=O)Nc1ccccc1F` (configuration not stated), the AC50 under setting [1] is 3.98 µM [falling, full curve].

With `N#CC(=C1SC=CS1)c1nc(-c2ccccc2)cs1`, under setting [1], the AC50 was 20 µM [falling, single point].

Take `CCOC(=O)c1c(C)n(S(=O)(=O)c2ccc(C)cc2)c2ccc(NS(=O)(=O)c3ccc(C)cc3)cc12`: under setting [1], the AC50 was 0.631 µM [rising, full curve, poor fit].

With `COc1ccc(-c2nnc(SC3CCOC3=O)n2C2CCCCC2)cc1OC` (configuration not stated), the AC50 under setting [1] is 2 µM [falling, full curve].

Regarding `CCOC(=O)c1nnn(CC(=O)NC(=O)Nc2ccc(F)cc2)c1C(=O)OCC`, under setting [1], the AC50 was 0.0251 µM [falling, full curve, poor fit].

Consider `COc1ccc(-n2c(Cc3cccn3C)nnc2SCC(=O)Nc2ccc(C)c(Cl)c2)cc1`, for which the AC50 under setting [1] was 15.8 µM [falling, partial curve].

As for `CCN(CC)C(=O)CSCC(=O)Nc1ccccc1`, the AC50 under setting [1] is 3.98 µM [falling, partial curve].

Turning to `O=C(NCc1ccccc1Cl)c1ccc(NC(=O)c2nsc3ccccc23)cc1`, the AC50 under setting [1] was 0.158 µM [falling, full curve].

On to `O=C(CCCCCN1C(=O)c2ccccc2C1=O)NC1CCCC1`, for which the AC50 under setting [1] was 15.8 µM [falling, partial curve] [measured here: IkB-luc green channel].

In the case of `CCOc1ccc2nc(N3CCC(C(=O)Nc4ccc(Br)cc4F)CC3)sc2c1`, under setting [1], the AC50 is 3.98 µM [falling, partial curve].

On to `CC1CCN(S(=O)(=O)c2ccc3c(ccn3CC(=O)NCc3ccc(N(C)C)cc3)c2)CC1`, for which the AC50 under setting [1] was 6.31 µM [falling, full curve].

Consider `COc1ccc(Cl)cc1NC(=O)CN(c1ccccc1)S(=O)(=O)N(C)C`, for which, under setting [1], the AC50 is 25.1 µM [falling, single point].

Consider `Cc1c(C(=O)Nc2ccccc2Br)oc2ccc(S(=O)(=O)N3CCOCC3)cc12`, for which, under setting [1], the AC50 is 15.8 µM [rising, partial curve].

As to `CCC1CN(C(=O)N2CCC(C(=O)N3CCN(c4ccc(F)cc4)CC3)CC2)c2ccccc2O1` (configuration not stated), the concentration at half-maximal activity (AC50) under setting [1] is 7.94 µM [falling, partial curve].

As for `Cc1ccc(NC(=O)C2CCN(C(=O)c3cnn(-c4ccccc4)c3-n3cccc3)CC2)cc1`, the AC50 under setting [1] is 12.6 µM [falling, single point].

Regarding `COc1ccc(S(=O)(=O)N2CCCC2C(=O)Nc2nc3c(s2)CCCC3)cc1` (configuration not stated), the AC50 under setting [1] was 25.1 µM [falling, partial curve].

As for `COc1ccc(NS(=O)(=O)c2ccc3c(c2)CCCN3C(=O)C2CCC2)cc1OC`, the half-maximal activity concentration (AC50) under setting [1] is 39.8 µM [falling, single point].

Take `Cc1ccc(S(=O)(=O)Nc2ccc3nc(-c4cccn4C)[nH]c3c2)cc1`: the AC50 under setting [1] was 12.6 µM [falling, partial curve].

For `COc1ccc(S(=O)(=O)Cc2ccc(C(=O)N3CCN(c4cc(C)ccc4C)CC3)o2)cc1`, the AC50 under setting [1] was 20 µM [falling, partial curve].

As to `O=C(Nc1cccc(-c2nc3ccccc3[nH]2)c1)c1c(F)cccc1F`, the AC50 under setting [1] is 31.6 µM [falling, single point].

Take `CCCNC(=O)c1c(NC(=O)c2ccc(C)cc2)sc2c1CCCCC2`: the AC50 under setting [1] was 39.8 µM [falling, single point].

On to `CN(C)CCCn1cc(C2=C(c3c[nH]c4ccccc34)C(=O)NC2=O)c2ccccc21`, for which, under setting [1], the AC50 is 12.6 µM [falling, partial curve].

Consider `CCOC(=O)c1c(C)oc2nc(C)nc(NCCCN3CCN(c4cc(Cl)ccc4C)CC3)c12`, for which the AC50 under setting [1] was 31.6 µM [falling, single point].

Regarding `CCOC(=O)c1cccc(NC(=O)Nc2ccc3c(c2)N(C)C(=O)c2ccccc2S3)c1`, the AC50 under setting [1] was 7.94 µM [falling, partial curve].

With `COc1ccc2c(c1)CCc1c(C(=O)Nc3c(C)nn(Cc4c(Cl)cccc4Cl)c3C)noc1-2`, the AC50 under setting [1] is 2 µM [falling, partial curve].

Take `C/C(Cl)=C/Cn1c(NCCCn2ccnc2)nc2c1c(=O)[nH]c(=O)n2C`: the AC50 under setting [1] was 1.26 µM [rising, partial curve] [measured here: IkB-luc green channel].

Take `O=C(c1cccs1)c1cn(CCOc2ccc(F)cc2)c2ccccc12`: the AC50 under setting [1] is 10 µM [falling, partial curve].

As to `O=C(Cn1cnc2onc(-c3ccc(F)cc3)c2c1=O)N1CCN(c2ccccc2F)CC1`, under setting [1], the AC50 was 6.31 µM [rising, single point].

On to `O=C(O)Cc1sc(Nc2ccc(C(=O)O)cc2)nc1-c1ccccc1`, for which the concentration at half-maximal activity (AC50) under setting [1] was 0.1 µM [falling, full curve].

As for `COc1cc2ccccc2cc1C(=O)Nc1cccc(-c2nc3ccccc3o2)c1`, the AC50 under setting [1] is 6.31 µM [falling, full curve].

As to `CC(C(=O)NCc1cccc(Br)c1)n1ncn2cccc2c1=O` (configuration not stated), under setting [1], the AC50 is 3.98 µM [falling, single point].

With `Cc1ccc(NC(=O)c2c(C(=O)Nc3ccccc3)sc3nc(C)cc(=O)n23)cc1`, the concentration at half-maximal activity (AC50) under setting [1] is 12.6 µM [falling, partial curve].

The record behind these values is PubChem BioAssay AID445 (National Center for Advancing Translational Sciences (NCATS), 2006).
